Assay results published in patent publication US20250263490A1 (VIB VZW, published 2025).
These are yes or no findings as the source states them, for the method shown. Some results given as binding are weak or reduced against the parent protein; the word gives no strength.

Amino acid sequences for entries named in this document (tags omitted). A change or cut given only in a name is not applied to a line headed by its entry.
UniProt Q07113: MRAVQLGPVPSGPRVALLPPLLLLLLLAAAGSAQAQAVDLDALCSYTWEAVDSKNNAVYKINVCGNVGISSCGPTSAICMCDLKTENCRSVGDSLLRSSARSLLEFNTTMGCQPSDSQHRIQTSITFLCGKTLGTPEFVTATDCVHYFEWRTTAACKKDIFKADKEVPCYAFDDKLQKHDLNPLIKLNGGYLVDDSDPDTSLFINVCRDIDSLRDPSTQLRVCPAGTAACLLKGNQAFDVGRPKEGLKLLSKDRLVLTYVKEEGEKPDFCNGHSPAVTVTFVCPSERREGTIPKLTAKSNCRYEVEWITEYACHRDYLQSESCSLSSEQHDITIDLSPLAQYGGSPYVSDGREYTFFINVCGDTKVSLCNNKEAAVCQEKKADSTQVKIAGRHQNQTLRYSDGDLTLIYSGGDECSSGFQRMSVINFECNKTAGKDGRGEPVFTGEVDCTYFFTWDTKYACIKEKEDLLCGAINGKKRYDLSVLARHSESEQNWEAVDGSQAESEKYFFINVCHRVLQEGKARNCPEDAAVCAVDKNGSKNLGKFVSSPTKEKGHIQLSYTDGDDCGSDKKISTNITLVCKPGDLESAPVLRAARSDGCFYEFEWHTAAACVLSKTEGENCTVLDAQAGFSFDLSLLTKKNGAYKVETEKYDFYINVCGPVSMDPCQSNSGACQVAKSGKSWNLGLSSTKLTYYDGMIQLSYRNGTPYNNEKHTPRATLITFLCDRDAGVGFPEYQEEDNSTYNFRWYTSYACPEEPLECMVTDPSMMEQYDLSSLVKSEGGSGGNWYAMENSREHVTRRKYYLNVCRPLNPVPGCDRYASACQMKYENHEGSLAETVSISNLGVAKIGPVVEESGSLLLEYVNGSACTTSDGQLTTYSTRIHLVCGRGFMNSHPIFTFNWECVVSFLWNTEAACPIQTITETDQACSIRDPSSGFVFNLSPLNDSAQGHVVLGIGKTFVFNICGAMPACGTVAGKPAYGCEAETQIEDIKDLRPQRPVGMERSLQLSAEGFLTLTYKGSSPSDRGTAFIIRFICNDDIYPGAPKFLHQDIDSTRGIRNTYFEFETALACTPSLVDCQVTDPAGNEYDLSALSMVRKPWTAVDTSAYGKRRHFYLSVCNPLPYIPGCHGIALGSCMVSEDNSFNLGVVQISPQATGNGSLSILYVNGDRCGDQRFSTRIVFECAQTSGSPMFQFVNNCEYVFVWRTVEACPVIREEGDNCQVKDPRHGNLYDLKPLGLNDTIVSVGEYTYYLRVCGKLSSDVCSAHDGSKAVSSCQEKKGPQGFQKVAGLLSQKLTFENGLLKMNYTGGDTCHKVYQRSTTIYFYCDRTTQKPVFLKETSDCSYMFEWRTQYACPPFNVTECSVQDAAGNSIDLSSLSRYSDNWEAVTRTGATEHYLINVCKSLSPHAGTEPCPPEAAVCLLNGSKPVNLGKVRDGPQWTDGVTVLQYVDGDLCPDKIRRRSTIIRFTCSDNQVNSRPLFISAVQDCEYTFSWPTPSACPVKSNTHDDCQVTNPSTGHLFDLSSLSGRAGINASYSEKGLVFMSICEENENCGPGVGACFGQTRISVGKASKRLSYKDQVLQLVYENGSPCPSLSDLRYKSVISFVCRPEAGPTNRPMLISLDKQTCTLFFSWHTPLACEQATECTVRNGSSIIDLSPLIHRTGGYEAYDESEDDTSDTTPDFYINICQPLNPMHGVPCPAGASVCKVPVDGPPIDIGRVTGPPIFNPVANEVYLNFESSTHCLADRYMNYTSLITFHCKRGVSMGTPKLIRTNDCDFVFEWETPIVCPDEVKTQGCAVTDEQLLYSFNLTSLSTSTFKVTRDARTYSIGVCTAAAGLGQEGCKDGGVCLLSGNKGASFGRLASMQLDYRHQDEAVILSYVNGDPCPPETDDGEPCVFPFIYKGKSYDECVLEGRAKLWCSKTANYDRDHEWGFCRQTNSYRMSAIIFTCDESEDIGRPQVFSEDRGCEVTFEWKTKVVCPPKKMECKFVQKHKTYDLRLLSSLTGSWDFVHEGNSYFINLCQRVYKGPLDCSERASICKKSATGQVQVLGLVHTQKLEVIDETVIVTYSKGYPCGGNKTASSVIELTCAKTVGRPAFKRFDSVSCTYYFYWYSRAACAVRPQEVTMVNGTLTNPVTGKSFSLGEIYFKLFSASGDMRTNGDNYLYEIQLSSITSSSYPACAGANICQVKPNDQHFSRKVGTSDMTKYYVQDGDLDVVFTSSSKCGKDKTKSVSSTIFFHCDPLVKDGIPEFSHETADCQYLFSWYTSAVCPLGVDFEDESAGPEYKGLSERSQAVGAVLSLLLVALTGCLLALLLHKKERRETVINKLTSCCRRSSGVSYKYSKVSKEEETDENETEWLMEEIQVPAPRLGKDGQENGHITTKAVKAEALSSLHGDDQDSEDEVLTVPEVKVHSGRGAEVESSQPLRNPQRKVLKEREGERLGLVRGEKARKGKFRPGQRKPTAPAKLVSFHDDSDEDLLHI

T1: E148R
T1 construct: also called human CI-M6PR Dom1-3His6 E148F
T1 chain: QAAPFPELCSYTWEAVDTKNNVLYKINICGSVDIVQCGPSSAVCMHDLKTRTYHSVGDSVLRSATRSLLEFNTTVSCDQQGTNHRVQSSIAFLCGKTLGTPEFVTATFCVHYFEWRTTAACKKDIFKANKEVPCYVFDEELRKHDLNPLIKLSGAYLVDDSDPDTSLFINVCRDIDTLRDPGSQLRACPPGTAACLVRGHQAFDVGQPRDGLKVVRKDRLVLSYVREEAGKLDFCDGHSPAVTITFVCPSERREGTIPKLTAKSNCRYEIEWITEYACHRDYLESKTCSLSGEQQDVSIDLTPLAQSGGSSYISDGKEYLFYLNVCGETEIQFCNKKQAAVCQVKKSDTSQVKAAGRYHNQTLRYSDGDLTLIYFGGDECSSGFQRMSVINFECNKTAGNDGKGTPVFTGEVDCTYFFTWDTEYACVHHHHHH


Columns and labels:
[1] = target: recombinant mouse domain 1-3His6 of CI-M6PR (mouse) (UniProt Q07113); experiment: ELISA on coated mDom1-3His6
[2] = target: recombinant human domain 1-3His6 of the cation-independent mannose-6-phosphate receptor (human) (UniProt P11717); experiment: ELISA on coated hDom1-3His6
[3] = target: recombinant human domain 1-3His6 of the cation-independent mannose-6-phosphate receptor (human) (UniProt P11717); experiment: ELISA: coated human CI-M6PR Domain 1-3His6, serially diluted VHH, anti-VHH-HRP, TMB, Abs 450 nm
[4] = target: recombinant human domain 1-3His6 of the cation-independent mannose-6-phosphate receptor (human) (UniProt P11717); experiment: ELISA: coated human CI-M6PR Domain 1-3His6, serially diluted VHH, anti-VHH-HRP, TMB, Abs 450 nm (replicate of FIG. 4A) [upper graph]
[5] = target: recombinant mouse domain 1-3His6 of CI-M6PR (mouse) (UniProt Q07113); experiment: ELISA: coated mouse CI-M6PR Domain 1-3His6, further purified antigen (FIGS. 2C-D), serially diluted VHH, Abs 450 nm; concentration axis has no printed unit
E148R = target: T1, E148R; experiment: ELISA on coated antigen (100 ng; labelled E148R on the sheet, E148F in the text), anti-VHH-HRP, A450
Method: To determine the effect of site-directed mutations, an ELISA was performed. To this end, 100 ng of each successfully purified mutant was coated per well on Nunc Maxisorp plates in 50 mM MES, 150 mM NaCl, pH 6.5 buffer overnight at 4° C. […] Coating-only controls were included for background correction. […] Reactions were stopped after five minutes using a 2N H₂SO₄ solution and plates were read at 450 nm, with a 655 nm background correction. Data were analyzed using the GraphPad Prism 9 software.

Row | binding [1] | binding [5] | Binder | other results
1 | binds |  | anti-CI-M6PR VHH11 (VHH, His6-tagged; made in Pichia pastoris) VHH: QVQLQESGGGLVQAGDSLKLSCTASGPTFSEITGGWFRQVPGKEREFVASISSTGITTYYTDSVKGRFTVSRDNAKNTMYLQMNSLKPEDTGVYYCAARSTSRSIAITVGYDYWGQGTQVTVSS | 
2 | binds | binds | anti-CI-M6PR VHH5 (VHH, His6-tagged; made in Pichia pastoris, later also in E. coli WK6) VHH: QVQLQESGGGLVQAGGSLKLSCAAAGRTFSRLAMGWFRQAPGKEREFVAAISENGDSIHYSDSVKGRFAVSRDNAKNTVYLQMNSLKPEDTAIYYCAADRAAYYCSGSGCYPSRAPAAASYDYWGQGTQVTVSS | binding (E148R): binds
3 | binds | binds | anti-CI-M6PR VHH8 (VHH, His6-tagged (Pichia pastoris)) VHH: QVQLQESGGGLVQAGGSLRLSCEASGRTFNTYNWGWFRQAPGKEREFVAAIRWSSSKTSYADSVKGRFTISRDNAKNTIYLQMNSLKPEDTAVYYCAASIVDFTTNPSHFGSWGQGTQVTVSS | binding (E148R): binds
4 | binds |  | anti-CI-M6PR VHH4 (VHH, His6-tagged; made in Pichia pastoris) VHH: QVQLQESGGGLVQAGGSLRLSCAASGRTFSNYVMGWFRQAPGKEREFVGSISQGGKMTYYPDSVKGRFTISRDNAKNTMYLQMDGLKPEDTAVYYCAVSRGYPMVRVSEVDYWGQGTQVTVSS | 
5 |  | binds | anti-CI-M6PR VHH7 (VHH, His6-tagged (Pichia pastoris)) VHH: QVQLQESGGGLVQPGGSLRLSCAASGIIFSDNRMDWYRQAPGKQREWVATLASYGWKTYADSVKGRFTISRDNTKNTVYLRMNSLKPEDTAVYYCKASSPVLNDIWGQGTQVTVSS | 

More lines, now with the values behind:

Row | Binder | binding [1] | binding [5] | other results
6 | anti-CI-M6PR VHH2 (VHH, His6-tagged; made in Pichia pastoris) VHH: QVQLQESGGGLVQPGGSLRLSCVFSGRTFMSYDVGWFRQAPGKERELLSSITSSSSSPYYAESVKGRFAVSRDGAKKTVYLRMNSLEPEDTAVYYCAARENWRNDWQYWGQTQVTVSS | binds |  | binding [2]: binds; binding [3]: binds; binding [4]: binds
7 | anti-CI-M6PR VHH3 (VHH, His6-tagged; made in Pichia pastoris) VHH: QVQLQESGGGLVQPGGSLRLSCAAFGLNFKNFDMIWFRQAPGEERDIVAAISSSSSTIWYEDSVKGRFTISRDNAKNTVYLQMNSLKPEDTAVYYCAAALTSWRRPDYWGQGTQVTVSS | binds |  | 
8 | anti-CI-M6PR VHH1 (VHH, His6-tagged; made in Pichia pastoris, later also in E. coli WK6) VHH: QVQLQESGGGLVQPGGSLRLSCVASGFTFDRYWMNWLRQIPGKEIEWVSTINTGGTGTYYDDSVKGRFSISRDDAKNTLYLTMNSLKTEDTAVYYCARGATYYRGNSAIRGQGTQVTVSS | binds | binds | 
